Experimental findings from PubChem BioAssay AID256 (DTP/NCI, 2004) are described below.

The list shows only some results of the screen, not a fair sample: it is rich in T/C values a quarter to a half above the control, in often repeated tests (any T/C) and in doses without a T/C. Other doses and runs of a compound stand elsewhere. T/C is the treated group as % of the vehicle group. Some doses have a count of surviving animals in place of a T/C: the source holds a T/C of zero for them, seemingly a mark for toxic or unscored doses. Some doses without a T/C left all or most animals alive at the check, yet need not have been tolerated: survival well below the control is almost never listed, so the zero probably covers shortened survival too. Counts of survivors are from the toxicity check (mostly the fifth day) where no day follows; animals may have died later. Schedules are NCI's codes, read here as Q, the interval in days (D) or hours (H), X, the number of doses. Some doses were run more than once; the values are given in rising order. Where survival is the endpoint, the PubChem record calls one and a half times the control and up active, and a quarter to a half above the control has no call in these data; cut-offs in other NCI protocols can differ. Some T/C values are followed by the survivors on the day toxicity was checked, most often the fifth; where none is given, no animal had died by that day.

This assay concerns CD2F1 mice, L1210 leukemia ip, survival T/C. The assay is described as follows: NCI In Vivo Anticancer Drug Screen. Data for tumor model L1210 Leukemia (intraperitoneal) in CD2F1 (CDF1) mice. As to conditions: T/C endpoint: mean survival time, higher T/C = longer survival. A digest of the protocol:
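Read-out first: treated-group measurement over vehicle-control measurement, expressed as a ratio. Animals bore a transplanted tumor line and were dosed with compound or vehicle.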

The mark [1] stands for this setting: dose: 100.0 mg/kg/injection, schedule: Q01DX001 (ip), vehicle: saline with Tween-80.
[2] abbreviates: dose: 200.0 mg/kg/injection, schedule: Q04DX003 (ip), vehicle: saline with Tween-80.
Setting [3] is: dose: 400.0 mg/kg/injection, schedule: Q04DX003 (ip), vehicle: saline with Tween-80.
[4] abbreviates: dose: 200.0 mg/kg/injection, schedule: Q01DX001 (ip), vehicle: saline with Tween-80.
The mark [5] stands for this setting: dose: 400.0 mg/kg/injection, schedule: Q01DX001 (ip), vehicle: saline with Tween-80.
The mark [6] stands for this setting: dose: 100.0 mg/kg/injection, schedule: Q04DX003 (ip), vehicle: saline with Tween-80.
[7] abbreviates: dose: 100.0 mg/kg/injection, schedule: Q04DX002 (ip), vehicle: saline.
The mark [8] stands for this setting: dose: 400.0 mg/kg/injection, schedule: Q01DX009 (ip), vehicle: saline with Tween-80.

For `N#CS.[Tl]`, the survivor count by setting is: (dose: 75.0 mg/kg/injection, schedule: Q01DX001 (ip), vehicle: carboxymethylcellulose (CMC)) 0 of 6; (dose: 150.0 mg/kg/injection, schedule: Q01DX001 (ip), vehicle: carboxymethylcellulose (CMC)) 0 of 6; (dose: 300.0 mg/kg/injection, schedule: Q01DX001 (ip), vehicle: carboxymethylcellulose (CMC)) 0 of 6.
In the case of `O=S1CCCO1` (stereo not given), the survivor count (dose: 37.5 mg/kg/injection, schedule: Q04DX003 (ip), vehicle: saline) is listed as 5 of 6 and the survivor count (dose: 75.0 mg/kg/injection, schedule: Q04DX003 (ip), vehicle: saline) is 0 of 6.
`C#CCOCC(O)C[As](=O)(O)c1ccc(Cl)cc1` (stereo not given): the survivor count was 1 of 6 (dose: 25.0 mg/kg/injection, schedule: Q01DX001 (ip), vehicle: saline with Tween-80); 0 of 6 (dose: 50.0 mg/kg/injection, schedule: Q01DX001 (ip), vehicle: saline with Tween-80); 0 of 6 under setting [1].
Regarding `ClCc1ccc(CCl)c(Cl)c1Cl`, the survivor count is 5 of 6 under setting [2] and 2 of 6 under setting [3].
As for `NCCCCCCN=C(N)C(N)=NCCCCCCN`, the survivor count (dose: 25.0 mg/kg/injection, schedule: Q04DX002 (ip), vehicle: saline) is on record as 0 of 3.
As for `O=c1c(Cl)c(C(Cl)(Cl)Cl)[nH]c2ccc([N+](=O)[O-])cc12`, the survivor count reads like this: under setting [1], 1 of 6; under setting [4], 0 of 6; under setting [5], 0 of 6.
As for `CNC(=S)Nc1ccc(C(=O)NC(C)C)cc1`, the survivor count is on record as 3 of 6 (dose: 400.0 mg/kg/injection, schedule: Q01DX009 (ip), vehicle: other) and 0 of 6 (dose: 800.0 mg/kg/injection, schedule: Q01DX009 (ip), vehicle: other).
Take `O=[As](O)(CC(O)COc1ccc(Cl)cc1Cl)c1cccc(Cl)c1` (stereo not given): the survivor count (dose: 25.0 mg/kg/injection, schedule: Q04DX003 (ip), vehicle: saline with Tween-80) is recorded as 0 of 6.
Consider `CCCCCCCCCCCCCCC(=O)Nc1ccccc1`, for which the survivor count was 6 of 6 under setting [1] and 6 of 6 under setting [5].
In the case of `CCCCS(=O)C(Cl)CCC` (stereo not given), the survivor count under setting [3] is on record as 2 of 6.
For `C1CCC2NN=NC2C1` (stereo not given), the survivor count under setting [5] is listed as 2 of 6.
For `CCCC(Sc1nc(N)nc2nc[nH]c12)C(=O)O` (stereo not given), the T/C (dose: 75.0 mg/kg/injection, schedule: Q04DX003 (ip), vehicle: saline with Tween-80) is 131 % of control; the T/C under setting [6] was 126 % of control; the T/C under setting [2] is 149 % of control.
As for `CN(C)C(=O)/C=C/c1c[nH]c(=O)[nH]c1=O`, the survivor count under setting [1] was 1 of 6, the survivor count under setting [4] is recorded as 3 of 6 and the survivor count under setting [5] is 0 of 6.
As to `CCCCS(=O)(=O)F`, under setting [7], the survivor count is on record as 1 of 3.
`CC(=O)Nc1ccc(Cc2cc(=O)[nH]c(=O)[nH]2)cc1`: the survivor count by setting is: (dose: 75.0 mg/kg/injection, schedule: Q01DX001 (ip), vehicle: saline with Tween-80) 3 of 6; (dose: 150.0 mg/kg/injection, schedule: Q01DX001 (ip), vehicle: saline with Tween-80) 0 of 6; (dose: 300.0 mg/kg/injection, schedule: Q01DX001 (ip), vehicle: saline with Tween-80) 3 of 6.
On to `C=C1C(=O)OC2CC(C)C3C=CC(=O)C3CC12` (stereo not given), for which the survivor count is, setting by setting: (dose: 2.0 mg/kg/injection, schedule: Q01DX009 (ip), vehicle: Klucel (hydroxypropylcellulose) (HPC)) 2 of 6; (dose: 4.69 mg/kg/injection, schedule: Q01DX009 (ip), vehicle: Klucel (hydroxypropylcellulose) (HPC)) 1 of 6; (dose: 9.38 mg/kg/injection, schedule: Q01DX009 (ip), vehicle: Klucel (hydroxypropylcellulose) (HPC)) 0 of 6; (dose: 18.75 mg/kg/injection, schedule: Q01DX009 (ip), vehicle: Klucel (hydroxypropylcellulose) (HPC)) 0 of 6; (dose: 37.5 mg/kg/injection, schedule: Q01DX009 (ip), vehicle: Klucel (hydroxypropylcellulose) (HPC)) 3 of 6; (dose: 75.0 mg/kg/injection, schedule: Q01DX009 (ip), vehicle: Klucel (hydroxypropylcellulose) (HPC)) 0 of 6.
In the case of `CCCCCCCCN(C)N=Nc1ccc(C(N)=O)cc1`, the T/C (dose: 266.0 mg/kg/injection, schedule: Q01DX009 (ip), vehicle: Klucel (hydroxypropylcellulose) (HPC)) was 128 % of control.
As to `C(=C\c1cc[n+](CCc2ccccc2)cc1)/c1ccccc1`, the survivor count is 0 of 6 under setting [6], 0 of 6 under setting [2] and 0 of 6 under setting [3].
As to `C[n+]1ccccc1/C=C/c1ccccn1`, the survivor count is 1 of 6 (dose: 100.0 mg/kg/injection, schedule: Q04DX003 (ip), vehicle: saline sonified); 0 of 6 (dose: 200.0 mg/kg/injection, schedule: Q04DX003 (ip), vehicle: saline sonified); 0 of 6 (dose: 400.0 mg/kg/injection, schedule: Q04DX003 (ip), vehicle: saline sonified).
Consider `CC1(CO)C2CCC(CC2)C1CO` (stereo not given), for which the survivor count under setting [5] is given as 1 of 6.
For the compound `CCC(=O)Nc1cccc(OS(=O)(=O)N(C)C)c1`, the survivor count under setting [6] is listed as 6 of 6.
For `CCCC[N+](CC)(CC)CCCNC1=CC(=O)C(NCCC[N+](CC)(CC)CCCC)=CC1=O`, the survivor count by setting is: under setting [7], 0 of 3; (dose: 200.0 mg/kg/injection, schedule: Q04DX002 (ip), vehicle: saline) 0 of 3; (dose: 400.0 mg/kg/injection, schedule: Q04DX002 (ip), vehicle: saline) 0 of 3.
On to `Cc1c(Cl)cccc1NC(=O)Oc1ccc(Cl)cc1Cl`, for which the survivor count under setting [3] is reported as 6 of 6.
For the compound `CS(=O)(=O)OCCNc1ccc([N+](=O)[O-])cc1`, the survivor count (dose: 512.0 mg/kg/injection, schedule: Q01DX001 (ip), vehicle: saline) was 0 of 6.
As to `C(#Cc1ccccc1)C[P+](c1ccccc1)(c1ccccc1)c1ccccc1`, the survivor count (dose: 10.0 mg/kg/injection, schedule: Q01DX009 (ip), vehicle: saline with Tween-80) was 2 of 6; the survivor count (dose: 20.0 mg/kg/injection, schedule: Q01DX009 (ip), vehicle: saline with Tween-80) is given as 2 of 6; the survivor count under setting [1] was 0 of 6; the survivor count under setting [4] is on record as 0 of 6; the survivor count under setting [5] was 0 of 6.
Consider `CC(C)CCCC(C)C1CCC2C3CC(CO)C4CC(O)CCC4(C)C3CCC12C` (stereo not given), for which the survivor count under setting [3] is on record as 0 of 6.
As for `CCOC12CC3C4=CCOC5CC(=O)N6c7ccccc7C1(CCN2C4)C6C53` (stereo not given), the survivor count (dose: 80.0 mg/kg/injection, schedule: Q01DX001 (ip), vehicle: saline) is listed as 0 of 6.
Take `Nc1nc(N)c(-c2ccc(Cl)c(Cl)c2)c(CP(Cl)(Cl)(Cl)Br)n1`: the T/C was 136 % of control (dose: 50.0 mg/kg/injection, schedule: Q01DX009 (ip), vehicle: saline with Tween-80); 113, 119, 120, 125 % of control (dose: 100.0 mg/kg/injection, schedule: Q01DX009 (ip), vehicle: saline with Tween-80); 100, 120, 122, 127 % of control (dose: 200.0 mg/kg/injection, schedule: Q01DX009 (ip), vehicle: saline with Tween-80); 97 and 127 % of control [4 of 6 alive] under setting [8]. Also, the survivor count was 0 of 3 and 1 of 3 under setting [8]; 0 of 6 under setting [3].
In the case of `O=C(O)/C=C/c1ccc([N+](=O)[O-])o1`, the survivor count under setting [5] is on record as 0 of 3.
In the case of `COCC1C(N)C(C)NC(Cl)C1C#N` (stereo not given), the survivor count under setting [8] was 4 of 6.
As for `Cc1nccc2c1[nH]c1cc(N)ccc12.[Cl][Sn][Cl]`, the survivor count reads like this: under setting [6], 0 of 6; under setting [2], 0 of 6; under setting [3], 0 of 6.
Regarding `Nc1nc2c(ncn2-c2ccc(Cl)c(Cl)c2)c(=O)[nH]1`, the survivor count (dose: 200.0 mg/kg/injection, schedule: Q04DX002 (ip), vehicle: saline with Tween-80) was 3 of 3.
